Results: PubChem BioAssay AID662 (National Center for Advancing Translational Sciences (NCATS), 2007)
“And” between values parts separate entries of the source, which are not always exact repeats. Identical values can stand only once. Some of the results follow. These are further read-outs of the screen, such as a control signal, another cell line or another target. No call is given for them. Most of these compounds were active or inconclusive in the main read-out, so they are no random draw. Potencies come from curve fits of mixed quality, noted in brackets.

Experiment: Cell signaling CRE-BLA (Fsk stim)
Conditions: CHO CRE-bla reporter (cAMP response element driving beta-lactamase), forskolin EC10, beta-lactamase ratio; measured here: 460 nm blue channel
Summary of the method: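 The 460nm/530nm emission ratio after CCF4 loading defined %Activity, from which AC50 values were obtained. CRE-bla CHO cells received compound dilution series together with an EC10 level of NKH 477 for 3 hours at 37 degrees Celsius.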
With NC(=O)SCC(=O)Nc1ccc(Cl)c(Cl)c1 the AC50 was 12.6 µM [falling, single point]. With COc1ccc(CCCO[C@@H](Cn2ccnc2)c2ccc(OC)cc2)cc1 the AC50 was 31.6 µM [falling, partial curve, poor fit]. For CCCc1cc(C(=O)Cc2ccc(C(=O)OCC)o2)c(O)cc1O, the AC50 was 31.6 µM [falling, single point]. In the case of CCn1c(Cc2ccc(OC)cc2)nnc1SCC(=O)Nc1cccc(C(=O)OC)c1, the AC50 is reported as 25.1 µM [rising, single point]. For COc1ccc(S(=O)(=O)N2CCN(CC(=O)Nc3ccc(C)c(F)c3)CC2)cc1, the AC50 was 0.00316 µM [falling, full curve, poor fit]. In the case of O=C(CN(CC1CCCO1)C(=O)CCC(=O)Nc1nccs1)NCc1ccc2c(c1)OCO2 (configuration not stated), the AC50 is reported as 5.01 µM [falling, single point]. In the case of O=C(Nc1cccnc1)c1cc2nc(C3CC3)cc(C(F)(F)F)n2n1, the AC50 is reported as 12.6 µM [rising, single point]. In the case of CCOC(=O)c1c(C)c(C(=O)NCc2ccc3c(c2)OCO3)c(C)n1C, the AC50 is reported as 10 µM [rising, single point]. With COc1cc(C(=O)NCc2nnc(SCC(=O)Nc3cccc(C)c3)o2)cc(OC)c1OC the AC50 was 12.6 µM [rising, single point]. In the case of CCNCCCNCCCNCCCNCC, the AC50 is reported as 31.6 µM [falling, partial curve, poor fit]. With COCCn1c(=O)c(-c2ccccc2)nc2cnc(N3CCN(C)CC3)nc21 the AC50 was 10 µM [rising, partial curve]. In the case of Clc1ccc(C(c2ccccc2Cl)C(Cl)Cl)cc1 (configuration not stated), the AC50 is reported as 31.6 µM [falling, single point]. For CN(C)c1ccc(C(=C2C=CC(=[N+](C)C)C=C2)c2ccccc2)cc1, the AC50 was 1 µM [falling, full curve] and 794 nM [rising, partial curve, poor fit]. For C/C(Cl)=C/CSc1nc2c(c(=O)[nH]c(=O)n2C)n1C(C)C, the AC50 was 10 µM [rising, partial curve]. For COc1ccc(-c2nc3cnccn3c2Nc2ccc3c(c2)OCO3)cc1, the AC50 was 6.31 µM [rising, partial curve]. For CCCCCC1CCC(C(=O)O)CC1 (configuration not stated), the AC50 was 0.2 µM [falling, full curve]. With O=c1[nH]c(CSc2nnc(COc3ccccc3)n2-c2ccccc2)nc2ccccc12 the AC50 was 10 µM [rising, partial curve]. In the case of CCOC(=O)c1cc2occc2n1CCCN1C(=O)c2ccccc2C1=O, the AC50 is reported as 15.8 µM [rising, partial curve]. With CCCCn1c(SCc2cc(=O)[nH]c3ccccc23)nc2c1c(=O)n(C)c(=O)n2C the AC50 was 1.26 µM [rising, partial curve, poor fit]. With Cc1ccc(NC(=O)c2ccc(F)c(S(=O)(=O)N3CCOCC3)c2)cc1F the AC50 was 2 µM [falling, single point]. For Cc1cc(C)n(-c2cc(C)c(C)cc2Br)n1, the AC50 was 20 µM [falling, partial curve]. With Cc1ccc2oc(=O)c3cc(C(=O)NCCN4CCN(C)CC4)sc3c2c1 the AC50 was 2 µM [rising, full curve]. For N#Cc1cccc(-c2nccc(-n3ccnc3)n2)c1, the AC50 was 2.51 µM [rising, full curve]. In the case of N#Cc1c2c(c(=S)n(-c3ccccc3)c1N)CCCC2, the AC50 is reported as 0.00316 µM [falling, full curve, poor fit]. With CC(C)c1ccc2oc(=O)cc(CN3CCN(c4ccccc4)CC3)c2c1 the AC50 was 5.01 µM [rising, single point]. In the case of O=C(Cn1ccc2ccccc2c1=O)NCCC(=O)Nc1cccnc1, the AC50 is reported as 12.6 µM [falling, partial curve, poor fit]. For c1ccc2c(c1)ncn2Cc1nnc2sc(-c3ccncc3)nn12, the AC50 was 25.1 µM [rising, single point]. For CCCCn1c(SCc2cc(=O)n3ccsc3n2)nc2cc(C(=O)OC)ccc2c1=O, the AC50 was 3.16 µM [rising, partial curve, poor fit]. For CCc1cc(=O)oc2cc(OCC(=O)N(CC)CC)c(Cl)cc12, the AC50 was 10 µM [rising, partial curve]. With N#Cc1ccc(NC(=O)C2CC(c3ccc(F)cc3)=NO2)cc1 (configuration not stated) the AC50 was 25.1 µM [rising, single point]. In the case of CSc1ccc(Cl)c(C(=O)OCC(=O)NCc2ccco2)c1, the AC50 is reported as 15.8 µM [falling, single point]. For COc1ncc2nc(-c3cn(C)c4ccccc34)c(=O)n(C)c2n1, the AC50 was 15.8 µM [rising, partial curve]. With COc1cccc2c(=O)n(CC(=O)NC3CCCCC3)ccc12 the AC50 was 7.94 µM [rising, partial curve]. With CCCCCN(C(=O)NC(=O)Nc1nncs1)S(C)(=O)=O the AC50 was 5.01 µM [falling, single point]. In the case of Cn1c(CCN2CCOCC2)nc2cc(NC(=O)COc3ccccc3)ccc21, the AC50 is reported as 3.16 µM [rising, partial curve]. In the case of O=C(NCC1CCCO1)C1CCCN(S(=O)(=O)c2cccc3nsnc23)C1 (configuration not stated), the AC50 is reported as 10 µM [falling, partial curve]. For C=CCOc1ccc(CN(C)CC(=O)N(CC(C)C)c2c(N)n(CC(C)C)c(=O)[nH]c2=O)cc1, the AC50 was 5.01 µM [falling, single point]. With CCCC(=O)Nc1cc(-c2nn(C)c(=O)c3ccccc23)ccc1OC the AC50 was 10 µM [rising, partial curve]. In the case of C#CCNc1nc(C)nc2c1nnn2Cc1ccccc1F, the AC50 is reported as 10 µM [rising, partial curve]. For Cc1ccnc(NC(=O)CCc2c(C)nc3ncnn3c2C)c1, the AC50 was 1.26 µM [falling, partial curve, poor fit]. With Cc1cc(C)c2c(n1)sc1c(N3CCOCC3)ncnc12 the AC50 was 20 µM [falling, single point]. For O=C(CN1C(=O)CCC1=O)Nc1nc(-c2ccc(Cl)s2)cs1, the AC50 was 15.8 µM [rising, partial curve]. For CCOc1ccc(NS(=O)(=O)c2ccc3[nH]cc(C(=O)NCC4CCCO4)c(=O)c3c2)cc1 (configuration not stated), the AC50 was 0.00398 µM [falling, full curve, poor fit]. With N#CCCn1c(=O)c(-c2cc(F)cc(F)c2)nc2cnc(Oc3ccccc3)nc21 the AC50 was 15.8 µM [rising, partial curve]. With Cc1ccc(Cn2c(=S)[nH]c3ccc(N4CCOCC4)cc3c2=O)o1 the AC50 was 3.98 µM [falling, partial curve, poor fit]. For COc1cccc(Cn2c(=O)c(-c3cccc(Cl)c3)nc3cncnc32)c1, the AC50 was 7.94 µM [rising, partial curve]. In the case of CCn1cc(C(=O)O)c(=O)c2cnc(N3CCN(C(=O)Nc4cccc5ccccc45)CC3)nc21, the AC50 is reported as 25.1 µM [rising, single point]. For C=CCSc1nc2c(c(=O)[nH]c(=O)n2C)n1C/C=C(/C)Cl, the AC50 was 12.6 µM [rising, partial curve]. For Cc1nnc2n1N=CC=C(C(C)(C)C)S2, the AC50 was 10 µM [falling, single point]. In the case of CNC(=O)c1c(NC(=O)c2ccc(S(=O)(=O)N3CCOCC3)cc2)sc2c1CCC2, the AC50 is reported as 7.94 µM [rising, partial curve]. In the case of Cc1occc1C(=O)n1nnc2ccccc21, the AC50 is reported as 6.31 µM [falling, partial curve, poor fit]. For COCCCn1c(=N)c(C(=O)NCC2CCCO2)cc2c(=O)n3ccccc3nc21 (configuration not stated), the AC50 was 15.8 µM [rising, partial curve]. With O=C(CCc1nc2ccccc2[nH]c1=O)OCC(=O)N1CCc2ccccc21 the AC50 was 25.1 µM [rising, single point]. For COc1ccc(CNc2cc(-c3ccccc3C)ncn2)c(OC)c1, the AC50 was 6.31 µM [rising, partial curve]. In the case of CCC(=O)N/C=C/n1cnc2cc(C(F)(F)F)ccc21, the AC50 is reported as 5.01 µM [falling, single point]. For CCCn1nnc2sc3c(c2c1=O)CCC(C)C3 (configuration not stated), the AC50 was 10 µM [rising, single point]. For CCOC(=O)N1CCN(C(=O)CN(C)S(=O)(=O)c2ccc(OC)c(OC)c2)CC1, the AC50 was 25.1 µM [rising, single point]. For CC(C)(C)OC(=O)N[C@@H](Cc1ccccc1)c1nnc(S(=O)(=O)Cc2cccc(F)c2)o1, the AC50 was 5.01 µM [falling, partial curve]. In the case of COc1ccccc1C1=NOC(Cn2c(=O)c3c(ncn3C)n(C)c2=O)C1 (configuration not stated), the AC50 is reported as 0.316 µM [falling, partial curve]. With CCN(c1c(C)n(C)n(-c2ccccc2)c1=O)S(C)(=O)=O the AC50 was 25.1 µM [falling, single point]. In the case of CN(CC(=O)N1CCN(c2ccccn2)CC1)S(=O)(=O)c1ccc2ccccc2c1, the AC50 is reported as 25.1 µM [falling, single point]. With CCCCC(=O)Nc1nn(CCC)c2nc3ccccc3cc12 the AC50 was 15.8 µM [rising, partial curve]. With Fc1ccc2nc3[nH]c4ccccc4c3nc2c1 the AC50 was 7.94 µM [rising, partial curve]. In the case of COc1ccccc1OCc1ccc(C(=O)n2nc(C)c(Cl)c2C)o1, the AC50 is reported as 15.8 µM [rising, single point]. In the case of Cc1ccc2nc3c(cc(C#N)c(=O)n3-c3nccs3)c(=O)n2c1, the AC50 is reported as 5.01 µM [rising, partial curve]. For COc1cc(C(=O)N2CCCC(c3nc(-c4cccs4)no3)C2)cc(OC)c1OC (configuration not stated), the AC50 was 2.51 µM [rising, single point]. With COc1cc(CC(=O)OC2CCOC2=O)cc(OC)c1OC (configuration not stated) the AC50 was 3.16 µM [rising, single point].
